Experimental data as given in the supplement of paper PMC10849652.
The other results are listed elsewhere or left out.

Amino acid sequences for entries named in this document (tags omitted). A change or cut given only in a name is not applied to a line headed by its entry.
UniProt O14576, whole entry, looked up: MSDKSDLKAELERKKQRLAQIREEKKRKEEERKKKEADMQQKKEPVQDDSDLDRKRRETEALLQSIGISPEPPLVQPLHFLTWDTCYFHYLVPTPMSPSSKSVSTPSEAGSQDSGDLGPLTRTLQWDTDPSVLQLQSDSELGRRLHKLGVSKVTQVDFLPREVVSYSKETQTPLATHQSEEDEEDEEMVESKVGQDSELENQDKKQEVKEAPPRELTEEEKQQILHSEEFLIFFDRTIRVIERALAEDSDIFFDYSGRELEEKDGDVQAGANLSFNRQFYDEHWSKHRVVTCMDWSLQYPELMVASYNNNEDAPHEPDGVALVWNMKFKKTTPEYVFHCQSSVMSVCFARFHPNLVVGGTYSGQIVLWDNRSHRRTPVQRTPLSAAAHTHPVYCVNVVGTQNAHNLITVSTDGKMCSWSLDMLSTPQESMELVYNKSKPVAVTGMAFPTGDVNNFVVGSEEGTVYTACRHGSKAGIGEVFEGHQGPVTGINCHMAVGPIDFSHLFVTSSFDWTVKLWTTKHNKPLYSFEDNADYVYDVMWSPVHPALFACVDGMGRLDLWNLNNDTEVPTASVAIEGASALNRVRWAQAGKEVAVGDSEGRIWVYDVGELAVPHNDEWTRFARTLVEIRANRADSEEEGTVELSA
UniProt Q9BVM2: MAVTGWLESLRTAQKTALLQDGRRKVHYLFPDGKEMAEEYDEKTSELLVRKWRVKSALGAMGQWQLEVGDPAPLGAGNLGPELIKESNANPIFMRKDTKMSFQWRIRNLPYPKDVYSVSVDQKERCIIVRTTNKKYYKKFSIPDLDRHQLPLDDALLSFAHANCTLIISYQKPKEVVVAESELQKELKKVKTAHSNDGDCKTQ
UniProt P49184: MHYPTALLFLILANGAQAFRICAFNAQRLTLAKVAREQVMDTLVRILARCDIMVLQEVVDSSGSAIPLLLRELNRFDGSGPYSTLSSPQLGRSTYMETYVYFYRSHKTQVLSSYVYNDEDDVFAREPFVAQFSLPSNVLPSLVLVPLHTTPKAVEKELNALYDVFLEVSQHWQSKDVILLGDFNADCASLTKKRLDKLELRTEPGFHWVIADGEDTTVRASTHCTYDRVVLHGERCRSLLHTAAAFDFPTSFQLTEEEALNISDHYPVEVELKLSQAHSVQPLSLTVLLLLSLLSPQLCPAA
UniProt Q9BV94: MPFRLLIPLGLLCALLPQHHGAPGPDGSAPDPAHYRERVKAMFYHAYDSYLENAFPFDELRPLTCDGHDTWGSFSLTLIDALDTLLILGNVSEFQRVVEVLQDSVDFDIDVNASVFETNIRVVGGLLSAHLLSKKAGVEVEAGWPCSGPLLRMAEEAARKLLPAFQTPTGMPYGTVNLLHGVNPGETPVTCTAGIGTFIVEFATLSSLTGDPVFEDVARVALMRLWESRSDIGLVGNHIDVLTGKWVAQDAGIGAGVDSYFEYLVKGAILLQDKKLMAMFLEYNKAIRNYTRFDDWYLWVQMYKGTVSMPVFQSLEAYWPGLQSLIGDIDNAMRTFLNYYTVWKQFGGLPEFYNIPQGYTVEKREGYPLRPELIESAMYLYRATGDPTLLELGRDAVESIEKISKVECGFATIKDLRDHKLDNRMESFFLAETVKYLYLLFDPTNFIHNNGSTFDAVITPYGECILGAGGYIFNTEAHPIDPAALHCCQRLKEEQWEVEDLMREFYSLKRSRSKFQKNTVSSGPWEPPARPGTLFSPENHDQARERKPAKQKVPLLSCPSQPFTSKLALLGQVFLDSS
UniProt Q9NNZ3: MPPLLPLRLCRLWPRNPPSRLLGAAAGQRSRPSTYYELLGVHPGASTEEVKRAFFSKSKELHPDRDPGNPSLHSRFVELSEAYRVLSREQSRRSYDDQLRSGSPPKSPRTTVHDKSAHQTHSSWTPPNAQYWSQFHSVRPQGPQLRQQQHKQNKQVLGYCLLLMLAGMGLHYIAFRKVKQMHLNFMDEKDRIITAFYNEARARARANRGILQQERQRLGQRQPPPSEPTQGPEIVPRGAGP
UniProt O95147: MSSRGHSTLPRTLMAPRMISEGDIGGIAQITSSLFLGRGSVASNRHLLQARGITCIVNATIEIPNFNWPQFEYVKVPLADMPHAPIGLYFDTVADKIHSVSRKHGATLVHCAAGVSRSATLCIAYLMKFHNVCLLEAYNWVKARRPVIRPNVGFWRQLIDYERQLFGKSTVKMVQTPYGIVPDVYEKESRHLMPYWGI
UniProt Q4LDG9: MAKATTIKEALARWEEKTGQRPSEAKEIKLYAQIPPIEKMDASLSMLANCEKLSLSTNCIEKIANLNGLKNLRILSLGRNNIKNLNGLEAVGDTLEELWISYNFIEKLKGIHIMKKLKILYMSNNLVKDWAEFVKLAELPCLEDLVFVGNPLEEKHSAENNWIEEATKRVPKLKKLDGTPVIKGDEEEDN
UniProt Q99956: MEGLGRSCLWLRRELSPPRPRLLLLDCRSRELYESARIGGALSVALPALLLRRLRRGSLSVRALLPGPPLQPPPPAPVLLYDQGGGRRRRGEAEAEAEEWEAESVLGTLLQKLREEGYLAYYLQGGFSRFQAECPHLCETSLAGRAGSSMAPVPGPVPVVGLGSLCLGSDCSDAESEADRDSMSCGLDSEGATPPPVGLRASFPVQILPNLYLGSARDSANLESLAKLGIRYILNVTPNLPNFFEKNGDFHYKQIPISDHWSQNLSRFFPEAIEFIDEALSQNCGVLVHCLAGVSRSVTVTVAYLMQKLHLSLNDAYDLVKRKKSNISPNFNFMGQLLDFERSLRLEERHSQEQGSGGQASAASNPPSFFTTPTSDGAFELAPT
UniProt Q5JWR5: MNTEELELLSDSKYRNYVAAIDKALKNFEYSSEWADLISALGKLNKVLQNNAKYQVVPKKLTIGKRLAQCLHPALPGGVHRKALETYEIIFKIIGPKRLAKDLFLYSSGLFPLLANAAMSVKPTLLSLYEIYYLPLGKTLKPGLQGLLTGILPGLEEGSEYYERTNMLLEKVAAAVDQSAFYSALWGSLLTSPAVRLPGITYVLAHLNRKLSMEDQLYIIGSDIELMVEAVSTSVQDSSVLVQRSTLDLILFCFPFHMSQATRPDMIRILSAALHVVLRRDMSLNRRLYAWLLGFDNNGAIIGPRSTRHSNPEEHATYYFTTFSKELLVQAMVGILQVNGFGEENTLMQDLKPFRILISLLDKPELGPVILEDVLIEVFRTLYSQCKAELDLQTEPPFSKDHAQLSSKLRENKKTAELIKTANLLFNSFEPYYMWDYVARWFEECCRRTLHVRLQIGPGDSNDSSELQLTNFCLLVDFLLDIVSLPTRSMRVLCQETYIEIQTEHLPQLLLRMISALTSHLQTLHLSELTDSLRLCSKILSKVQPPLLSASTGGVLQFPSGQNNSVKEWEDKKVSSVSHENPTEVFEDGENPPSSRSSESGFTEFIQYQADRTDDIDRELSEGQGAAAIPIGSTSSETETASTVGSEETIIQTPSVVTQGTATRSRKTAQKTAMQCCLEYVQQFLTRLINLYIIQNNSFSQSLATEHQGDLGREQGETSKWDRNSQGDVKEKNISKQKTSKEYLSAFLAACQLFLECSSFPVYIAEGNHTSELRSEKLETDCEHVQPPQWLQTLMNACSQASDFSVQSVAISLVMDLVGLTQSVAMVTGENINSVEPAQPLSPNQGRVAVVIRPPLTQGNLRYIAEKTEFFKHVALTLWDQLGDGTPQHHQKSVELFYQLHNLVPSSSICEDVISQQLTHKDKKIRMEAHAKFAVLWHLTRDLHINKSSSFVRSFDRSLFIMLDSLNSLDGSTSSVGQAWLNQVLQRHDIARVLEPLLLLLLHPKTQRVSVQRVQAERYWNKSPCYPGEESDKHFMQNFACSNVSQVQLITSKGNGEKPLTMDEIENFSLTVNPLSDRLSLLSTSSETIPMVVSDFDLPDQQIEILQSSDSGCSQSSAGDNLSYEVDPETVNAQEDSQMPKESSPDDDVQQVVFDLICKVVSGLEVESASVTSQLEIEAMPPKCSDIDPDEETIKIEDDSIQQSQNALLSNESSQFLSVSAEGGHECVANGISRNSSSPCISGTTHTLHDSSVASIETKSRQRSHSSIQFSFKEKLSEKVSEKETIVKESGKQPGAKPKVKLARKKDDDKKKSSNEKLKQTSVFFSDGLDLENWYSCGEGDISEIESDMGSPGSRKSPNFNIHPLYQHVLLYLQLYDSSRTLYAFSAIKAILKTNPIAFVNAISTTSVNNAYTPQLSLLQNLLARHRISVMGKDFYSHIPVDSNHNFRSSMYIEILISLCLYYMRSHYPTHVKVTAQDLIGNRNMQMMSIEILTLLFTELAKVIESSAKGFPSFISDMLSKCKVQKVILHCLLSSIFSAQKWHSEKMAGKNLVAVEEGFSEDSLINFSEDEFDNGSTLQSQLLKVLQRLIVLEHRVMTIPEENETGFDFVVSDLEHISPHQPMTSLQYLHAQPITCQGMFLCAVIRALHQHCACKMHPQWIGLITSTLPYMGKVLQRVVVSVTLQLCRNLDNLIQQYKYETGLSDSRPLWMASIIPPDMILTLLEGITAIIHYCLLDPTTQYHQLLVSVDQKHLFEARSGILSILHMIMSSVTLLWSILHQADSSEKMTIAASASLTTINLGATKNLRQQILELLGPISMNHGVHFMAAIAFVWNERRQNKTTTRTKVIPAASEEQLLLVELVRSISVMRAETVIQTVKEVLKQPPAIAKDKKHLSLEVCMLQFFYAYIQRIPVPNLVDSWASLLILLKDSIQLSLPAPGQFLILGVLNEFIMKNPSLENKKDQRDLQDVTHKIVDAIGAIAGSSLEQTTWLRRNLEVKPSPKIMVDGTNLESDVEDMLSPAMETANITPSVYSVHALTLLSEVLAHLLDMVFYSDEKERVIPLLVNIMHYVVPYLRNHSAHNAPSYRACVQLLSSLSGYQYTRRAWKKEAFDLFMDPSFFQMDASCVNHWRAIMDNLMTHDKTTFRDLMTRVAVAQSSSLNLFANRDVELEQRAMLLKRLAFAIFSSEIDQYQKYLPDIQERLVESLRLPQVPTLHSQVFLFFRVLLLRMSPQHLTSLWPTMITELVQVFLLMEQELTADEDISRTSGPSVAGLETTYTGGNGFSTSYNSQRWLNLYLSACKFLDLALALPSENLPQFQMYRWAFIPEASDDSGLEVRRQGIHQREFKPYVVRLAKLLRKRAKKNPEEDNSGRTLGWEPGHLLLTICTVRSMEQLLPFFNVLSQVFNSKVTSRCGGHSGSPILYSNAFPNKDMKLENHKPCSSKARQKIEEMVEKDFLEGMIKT
UniProt Q9NRR4: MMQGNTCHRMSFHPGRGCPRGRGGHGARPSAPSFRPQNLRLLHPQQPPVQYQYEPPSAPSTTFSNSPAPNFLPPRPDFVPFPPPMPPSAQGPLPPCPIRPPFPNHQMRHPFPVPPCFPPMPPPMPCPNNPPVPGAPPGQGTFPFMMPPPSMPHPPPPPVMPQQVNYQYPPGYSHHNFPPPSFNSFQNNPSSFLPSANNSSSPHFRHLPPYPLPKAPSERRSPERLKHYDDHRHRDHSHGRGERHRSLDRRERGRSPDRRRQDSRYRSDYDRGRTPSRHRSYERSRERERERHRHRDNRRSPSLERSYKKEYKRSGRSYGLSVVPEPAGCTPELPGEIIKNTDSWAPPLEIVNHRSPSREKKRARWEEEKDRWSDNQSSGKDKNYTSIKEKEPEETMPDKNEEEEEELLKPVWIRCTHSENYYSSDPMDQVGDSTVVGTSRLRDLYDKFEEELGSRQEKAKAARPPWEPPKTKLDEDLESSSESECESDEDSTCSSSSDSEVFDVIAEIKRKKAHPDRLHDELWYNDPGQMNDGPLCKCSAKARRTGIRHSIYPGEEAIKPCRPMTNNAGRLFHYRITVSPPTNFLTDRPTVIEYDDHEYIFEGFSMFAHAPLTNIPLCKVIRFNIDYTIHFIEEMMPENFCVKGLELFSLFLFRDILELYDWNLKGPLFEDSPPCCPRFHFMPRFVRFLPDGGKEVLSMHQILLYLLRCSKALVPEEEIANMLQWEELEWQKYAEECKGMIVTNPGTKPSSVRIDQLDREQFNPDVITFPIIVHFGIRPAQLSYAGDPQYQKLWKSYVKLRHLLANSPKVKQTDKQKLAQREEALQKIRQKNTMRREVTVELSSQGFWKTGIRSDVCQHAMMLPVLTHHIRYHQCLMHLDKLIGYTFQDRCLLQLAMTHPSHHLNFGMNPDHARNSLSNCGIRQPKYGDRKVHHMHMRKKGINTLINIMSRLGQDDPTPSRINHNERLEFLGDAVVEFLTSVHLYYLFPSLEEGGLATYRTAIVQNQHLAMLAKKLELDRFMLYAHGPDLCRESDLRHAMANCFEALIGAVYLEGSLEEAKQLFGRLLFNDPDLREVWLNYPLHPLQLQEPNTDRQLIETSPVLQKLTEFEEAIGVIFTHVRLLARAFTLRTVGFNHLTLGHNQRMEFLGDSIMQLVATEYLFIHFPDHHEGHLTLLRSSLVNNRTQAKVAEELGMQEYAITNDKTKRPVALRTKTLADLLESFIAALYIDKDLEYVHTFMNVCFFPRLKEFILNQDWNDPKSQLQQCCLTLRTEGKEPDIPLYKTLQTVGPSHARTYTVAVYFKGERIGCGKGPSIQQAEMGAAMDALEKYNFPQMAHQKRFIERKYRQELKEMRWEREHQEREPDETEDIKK

Legend:
Assay in all cases: log2 fold change, soluble protein after heating vs DMSO (PISA); higher = thermal stabilisation; K562 cells, 10 uM, 30 min; active = over 0.2 and 3.5 SD of the protein, either way, in both replicates (recomputed)
[1] = compound: CC[C@@H]1C(=O)N(C)c2cnc(Nc3ccc(C(=O)NC4CCN(C)CC4)cc3OC)nc2N1C1CCCC1
In short: (§1)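 K562 cells at 2×10^6 cells/mL were given 10 μM compound for 30 min. Aliquots then went through 3 min of heating across 48°C-58°C, were pooled, and were extracted in PBS with 0.5% NP-40 at 4°C, and the supernatant after 21,000xg for 90 min was quantified by TMTpro 16plex LC-MS/MS with channel sums equalised. Thermal stability relative to control samples, from duplicates, is given as log2 fold change.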

[2] = compound: CC[C@H](C)N1C=C(C2=C(C=C(C=C21)C3=CN=C(C=C3)N4CCNCC4)C(=O)NCC5=C(C=C(NC5=O)C)C)C
In short: as §1

[3] = compound: CN(C)CC(=O)Nc1ccc2[nH]c(=O)c3ccccc3c2c1
In short: as §1

[4] = compound: CN1CCc2c(c3ccccc3n2Cc2ccc(C(=O)NO)cc2)C1 [Tubastatin A]
In short: as §1

[5] = compound: CNC(=O)c1ccc(Nc2ncc(C(F)(F)F)c(NCc3nccnc3N(C)S(C)(=O)=O)n2)cc1 [defactinib]
In short: as §1

[6] = compound: CNCc1ccc(-c2[nH]c3cc(F)cc4c3c2CCNC4=O)cc1 [rucaparib]
In short: as §1

[7] = compound: COC(=O)N[C@@H](C)CNc1nccc(-c2cn(C(C)C)nc2-c2cc(Cl)cc(NS(C)(=O)=O)c2F)n1 [encorafenib]
In short: as §1

[8] = compound: COC(=O)[C@H](CCSC)NC(=O)C1=C(C=C(C=C1)NC[C@H](CS)N)C2=CC=CC=C2
In short: as §1

[9] = compound: CC[C@@H]1C(=O)N(C)c2cnc(Nc3ccc(C(=O)N[C@H]4CC[C@H](N5CCN(CC6CC6)CC5)CC4)cc3OC)nc2N1C(C)C [volasertib]
In short: as §1

[10] = compound: CCn1c(C(=O)N(C2CC2)C2CC2)cc2c3c(ncn3C)c(Nc3cc(C)n(C)n3)nc21
In short: as §1

[11] = compound: CNC(=O)C1=CC=CC=C1NC2=NC(=NC=C2Cl)NC3=C(C=C(C=C3)N4CCOCC4)OC
In short: as §1

[12] = compound: CC[C@H](C)[C@@H](C(=O)N[C@@H]([C@@H](C)O)C(=O)N[C@@H](CC(C)C)C(=O)[C@]1(CO1)C)NC(=O)[C@H]([C@@H](C)CC)N(C)C(=O)C [epoxomicin]
In short: as §1

[13] = compound: CCn1cc(-c2ccnc3[nH]c(-c4cccc(CN(C)C)c4)cc23)c(-c2ccc(NC(=O)N(C)C)cc2)n1
In short: as §1

[14] = compound: CN1CCC(CNc2ccc3ncc(-c4cccc(OC(F)(F)F)c4)n3n2)CC1
In short: as §1

[15] = compound: CN1C2=C(C3=C1C(=O)N(N=C3)CC4=CC(=CC=C4)N)SC(=C2)S(=O)C
In short: as §1

[16] = compound: CN1CCN(CCOc2cc(OC3CCOCC3)c3c(Nc4c(Cl)ccc5c4OCO5)ncnc3c2)CC1 [saracatinib]
In short: as §1

[17] = compound: CN1CCN(c2nc(C3=C(c4c[nH]c5ccccc45)C(=O)NC3=O)c3ccccc3n2)CC1 [sotrastaurin]
In short: as §1

[18] = compound: CNc1nc(-c2ccc3c(N)n[nH]c3c2)cc(N2C[C@@H](C(=O)NC3CCCCC3)CC[C@H]2C)n1
In short: as §1

[19] = compound: CN1CC[C@H](c2c(O)cc(O)c3c(=O)cc(-c4ccccc4Cl)oc23)[C@H](O)C1 [alvocidib]
In short: as §1

[20] = compound: CN(CCOC1=CC=C(C=C1)C[C@H]2C(=O)NC(=O)S2)C3=CC=CC=N3 (racemic) [rosiglitazone]
In short: as §1

Measured: log2 fold change

DOCK10 (UniProt Q96BY6)
inactive: [1] 0.328 | [2] -0.197 | [3] -0.013 | [4] 0.127 | [5] -0.147 | [6] -0.357 | [7] 0.244 | [8] 0.089

DRAP1 (UniProt E9PQX9)
inactive: [9] -0.055 | [10] -0.05 | [4] 0.195 | [11] -0.174

DYNC1I1 (UniProt O14576)
inactive: [9] 0.047 | [12] -0.005 | [3] -0.035 | [5] -0.076 | [8] 0.136

DPCD (UniProt Q9BVM2)
inactive: [13] 0.02 | [3] -0.021 | [14] -0.011 | [5] 0.016 | [8] -0.053

DNASE1L1 (UniProt P49184)
inactive: [10] -0.075 | [11] -0.155

EDEM2 (UniProt Q9BV94)
inactive: [9] -0.159 | [2] -0.035 | [12] -0.006 | [13] -0.087 | [3] -0.001 | [15] -0.003 | [14] 0.161 | [16] -0.23 | [17] -0.05 | [4] 0.022 | [11] -0.016 | [5] 0.036 | [18] 0.079 | [8] 0.105

DOCK11, A0A0J9YW64
inactive: [1] -0.257 | [17] 0.065 | [6] 0.229 | [7] 0.112

DNPH1 (UniProt H0Y8X4)
inactive: [9] 0.146 | [2] 0.056 | [10] -0.018 | [15] 0.01 | [16] -0.049 | [19] 0.003 | [4] 0.097 | [11] -0.052 | [18] -0.329

DYNC2LI1 isoform 2 (UniProt Q8TCX1)
inactive: [9] -0.069 | [12] 0.011 | [10] -0.038 | [3] -0.215 | [17] -0.081 | [19] 0.107 | [11] 0.041 | [5] 0.094 | [8] 0.015

DNAJC4 (UniProt Q9NNZ3)
inactive: [9] -0.149

DNMT3B (UniProt Q9UBC3)
inactive: [13] -0.103 | [15] -0.317 | [14] -0.001 | [16] -0.277 | [18] -0.145

DNAJC25 (UniProt Q9H1X3)
inactive: [9] 0.077 | [10] -0.122 | [20] 0.179 | [4] 0.05 | [11] -0.047

DNPEP (UniProt C9JBE1)
inactive: [9] 0.124 | [12] -0.131 | [10] 0.052 | [13] 0.046 | [3] 0.072 | [20] -0.046 | [15] 0.036 | [14] -0.473 | [16] -0.02 | [17] 0.035 | [4] -0.381 | [11] -0.175 | [5] 0.19 | [18] -0.152 | [8] 0.053

DUSP14 (UniProt O95147)
inactive: [12] 0.358 | [10] -0.071 | [13] -0.039 | [3] 0.051 | [20] -0.016 | [15] -0.157 | [14] 0.24 | [16] 0.054 | [19] -0.145 | [4] 0.004 | [11] -0.212 | [5] -0.035 | [18] -0.108 | [8] -0.06

DNAL1 (UniProt Q4LDG9)
inactive: [12] 0.082 | [3] 0.103 | [15] -0.256 | [16] -0.081 | [5] -0.14 | [18] 0.062 | [8] -0.13

DUSP12 (UniProt V9GYV5)
inactive: [12] -0.085 | [3] -0.125 | [17] 0.13 | [5] -0.076 | [8] 0.119

DUSP9 (UniProt Q99956)
inactive: [2] -0.386 | [12] -0.177 | [10] -0.204 | [3] 0.036 | [15] 0.179 | [16] -0.653 | [17] -0.166 | [11] 0.241 | [5] -0.063 | [18] 0.211 | [8] -0.051

DOP1A (UniProt Q5JWR5)
inactive: [12] 0.069 | [3] 0.121 | [11] -0.052 | [5] 0.164 | [8] -0.083

Random excerpt: 2 entries already listed, in no set order.
DYNC2LI1 isoform 2 (UniProt Q8TCX1)
inactive: [9] -0.069 | [12] 0.011 | [10] -0.038 | [3] -0.215 | [17] -0.081 | [19] 0.107 | [11] 0.041 | [5] 0.094 | [8] 0.015

DNAJC4 (UniProt Q9NNZ3)
inactive: [9] -0.149

Later entries:

DNM1 (UniProt Q05193)
inactive: [12] -0.334 | [10] 0.077 | [13] -0.026 | [3] -0.028 | [14] -0.222 | [11] -0.035 | [5] -0.037 | [8] -0.035

DROSHA (UniProt Q9NRR4)
inactive: [12] 0.06 | [19] 0.047 | [4] 0.002

DNAJB1 (UniProt M0R128)
inactive: [3] -0.038 | [4] -0.058 | [5] -0.073 | [8] 0.18

DNAJC30 (UniProt Q96LL9)
inactive: [10] 0.092 | [11] -0.026
